Some of these results come from one statement about several compounds together.
Key:
[1] = test system: E. faecalis (ATCC 29212); experiment: Impact of CAPB on cationic biocides, 60 second contact test against E. faecalis; format: cell-based; settings: 0.3% active, 60 seconds contact, 0.3 g/L bovine serum albumin, with CAPB 3.5% w/w active, listed as benzethonium chloride
Description: In this Example, the impact of cocamidopropyl betaine (CAPB) on the antimicrobial activity of cationic biocides against E. faecalis (ATCC 29212) was analyzed.
Specifically, E. faecalis was contacted for 60 seconds in a 0.3 g/L solution of bovine serum albumin mixed with a solution containing a cationic biocide, with or without CAPB (3.5% w/w active).

[2] = test system: S. aureus (ATCC 6538); experiment: Impact of CAPB on cationic biocides, 60 second contact test against S. aureus; format: cell-based; settings: 0.3% active, 60 seconds contact, 0.3 g/L bovine serum albumin, with CAPB 3.5% w/w active, listed as benzethonium chloride
Description: In this Example, the impact of cocamidopropyl betaine (CAPB) on the antimicrobial activity of cationic biocides against S. aureus (ATCC 6538) was analyzed.
Specifically, S. aureus was contacted for 60 seconds in a 0.3 g/L solution of bovine serum albumin mixed with a solution containing a cationic biocide, with or without CAPB (3.5% w/w active).

CC(C)(C)CC(C)(C)c1ccc(OCCOCC[N+](C)(C)Cc2ccccc2)cc1 [Benzethonium chloride]
LOG10 CFU/ml Reduction, w/ CAPB [1]: less than 3.3 LOG10 CFU/ml | LOG10 CFU/ml Reduction, w/ CAPB [2]: less than 2.4 LOG10 CFU/ml
